Where a chain is given by its changes, count along the chain named. Results are given in words; binding and its absence hold for the method and conditions named. Binding seen in cells or lysates may run through a third protein. Here binding means that the protein was enriched with, or labelled near, the bait; the list need not be complete. For some of these results: A no says only that the protein was not detected with the bait. Tags and fused reporters may be left off the sequences shown. Each block holds one molecule with its values, some of them ahead of it.
Key:
Test in all cases: affinity purification with mass spectrometry; GST pull-down: 10 ug of purified GST-AIP bait (WT or variant) against 2 mg total protein of GH3 cell lysate; eluates of four experiments pooled; TMTsixplex labelling, Orbitrap MS; peptide intensities minus the GST control, variants given as fold of the WT experiment (WT = 1); only the target purified
[1] = molecular target: T1, GST-tagged human AIP p.K266A (human) (UniProt O00170)
T1 sequence: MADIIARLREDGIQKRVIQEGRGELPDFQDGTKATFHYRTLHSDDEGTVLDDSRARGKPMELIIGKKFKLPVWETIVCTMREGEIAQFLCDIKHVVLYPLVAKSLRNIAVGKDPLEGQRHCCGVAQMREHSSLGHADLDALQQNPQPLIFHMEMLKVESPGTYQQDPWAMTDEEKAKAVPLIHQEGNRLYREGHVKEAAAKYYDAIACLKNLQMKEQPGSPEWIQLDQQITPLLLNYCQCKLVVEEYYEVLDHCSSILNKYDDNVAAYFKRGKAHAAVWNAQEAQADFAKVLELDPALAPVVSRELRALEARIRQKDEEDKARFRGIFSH

Chains of the proteins cited; added tags and fusions are not shown. Residues count along the entry.
UniProt P34058: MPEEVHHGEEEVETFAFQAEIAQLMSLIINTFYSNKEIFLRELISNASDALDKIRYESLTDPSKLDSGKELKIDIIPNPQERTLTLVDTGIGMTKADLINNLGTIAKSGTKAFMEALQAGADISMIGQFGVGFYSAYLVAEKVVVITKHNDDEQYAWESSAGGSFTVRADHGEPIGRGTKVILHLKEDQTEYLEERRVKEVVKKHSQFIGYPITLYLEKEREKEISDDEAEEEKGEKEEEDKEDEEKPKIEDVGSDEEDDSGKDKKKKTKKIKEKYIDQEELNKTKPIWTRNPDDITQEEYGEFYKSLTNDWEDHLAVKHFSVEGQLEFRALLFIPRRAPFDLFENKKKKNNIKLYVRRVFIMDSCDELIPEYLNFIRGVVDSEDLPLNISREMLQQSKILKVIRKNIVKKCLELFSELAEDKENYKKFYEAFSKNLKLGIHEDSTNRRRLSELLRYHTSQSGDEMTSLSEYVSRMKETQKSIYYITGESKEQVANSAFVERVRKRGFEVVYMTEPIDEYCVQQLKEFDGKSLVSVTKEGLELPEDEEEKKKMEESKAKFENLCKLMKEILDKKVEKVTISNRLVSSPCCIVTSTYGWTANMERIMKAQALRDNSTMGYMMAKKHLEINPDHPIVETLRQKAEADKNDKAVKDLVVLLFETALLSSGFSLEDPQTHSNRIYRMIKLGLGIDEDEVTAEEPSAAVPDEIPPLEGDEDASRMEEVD
UniProt P07632: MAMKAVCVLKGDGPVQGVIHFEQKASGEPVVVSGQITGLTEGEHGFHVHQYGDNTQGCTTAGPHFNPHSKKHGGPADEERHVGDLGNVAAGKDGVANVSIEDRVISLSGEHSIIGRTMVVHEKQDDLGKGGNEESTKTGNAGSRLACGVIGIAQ
UniProt P48721, residues 47-679: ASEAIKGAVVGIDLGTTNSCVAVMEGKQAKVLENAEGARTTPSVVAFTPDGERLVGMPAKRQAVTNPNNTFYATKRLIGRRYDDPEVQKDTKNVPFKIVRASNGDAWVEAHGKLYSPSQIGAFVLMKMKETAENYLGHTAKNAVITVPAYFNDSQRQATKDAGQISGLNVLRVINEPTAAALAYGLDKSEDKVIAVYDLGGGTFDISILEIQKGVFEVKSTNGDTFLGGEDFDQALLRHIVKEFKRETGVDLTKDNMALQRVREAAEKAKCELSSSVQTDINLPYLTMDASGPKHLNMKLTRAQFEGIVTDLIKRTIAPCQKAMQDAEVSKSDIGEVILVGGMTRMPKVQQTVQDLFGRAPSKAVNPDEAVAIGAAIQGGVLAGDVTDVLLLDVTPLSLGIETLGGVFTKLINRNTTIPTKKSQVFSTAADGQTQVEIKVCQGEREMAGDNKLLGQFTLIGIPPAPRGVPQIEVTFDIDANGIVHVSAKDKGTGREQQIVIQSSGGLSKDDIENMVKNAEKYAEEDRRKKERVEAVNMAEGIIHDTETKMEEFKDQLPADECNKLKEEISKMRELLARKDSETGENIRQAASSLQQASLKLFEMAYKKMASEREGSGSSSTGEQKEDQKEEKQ

[2] = molecular target: T2, GST-tagged human AIP p.R304Q (human) (UniProt O00170)
T2 sequence: T1 sequence with A266K, R304Q

[3] = molecular target: T3, GST-tagged human AIP p.R304* (human, UniProt O00170 1-303)
T3 construct: AIP, human, UniProt O00170; natural nonsense variant c.910C>T, p.R304*: stop codon in place of R304, truncated protein ending at residue 303; The C-terminal limit 303 follows from the printed p.R304*; also called GST-AIP R304*; not shown: GST, N-terminal, kept
T3 sequence (looked up): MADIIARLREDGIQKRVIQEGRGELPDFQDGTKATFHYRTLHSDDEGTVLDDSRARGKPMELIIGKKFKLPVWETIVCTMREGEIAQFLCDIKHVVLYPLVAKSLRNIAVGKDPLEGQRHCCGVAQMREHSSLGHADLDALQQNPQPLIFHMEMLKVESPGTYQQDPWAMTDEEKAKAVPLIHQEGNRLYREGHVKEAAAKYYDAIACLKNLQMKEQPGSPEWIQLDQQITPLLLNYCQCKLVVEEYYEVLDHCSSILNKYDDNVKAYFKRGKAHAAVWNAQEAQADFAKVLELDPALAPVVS

[4] = molecular target: T4, GST-tagged human wild-type AIP (aryl hydrocarbon receptor interacting protein) (human) (UniProt O00170)
T4 sequence: T1 sequence with A266K

[5] = molecular target: T5, GST-tagged human AIP p.A299V (human, UniProt O00170 1-330, p.A299V)
T5 construct: AIP, human, UniProt O00170; also called GST-AIP A299V; not shown: GST, N-terminal, kept
T5 sequence (looked up): T1 sequence with A266K, A299V

binding [1]: binds
binding [4]: binds
Molecule: HS90B_RAT Heat shock protein HSP 90-beta (Hsp90ab1) (from UniProt P34058 1-724)

binding [2]: no binding
binding [3]: no binding
binding [4]: binds
Molecule: SODC_RAT Superoxide dismutase [Cu-Zn] (Sod1) (from UniProt P07632 1-154)

Continued, molecule first:

Molecule: GRP75_RAT Stress-70 protein, mitochondrial (Hspa9) (from UniProt P48721 47-679)
binding [1]: binds
binding [2]: binds
binding [3]: binds
binding [4]: binds
binding [5]: binds

B1: NDKA_RAT Nucleoside diphosphate kinase A (Nme1) (natural protein, R. norvegicus (endogenous in GH3), UniProt Q05982 1-152, looked up)
chain: MANSERTFIAIKPDGVQRGLVGEIIKRFEQKGFRLVGLKFIQASEDLLKEHYIDLKDRPFFSGLVKYMHSGPVVAMVWEGLNVVKTGRVMLGETNPADSKPGTIRGDFCIQVGRNIIHGSDSVESAEKEISLWFQPEELVDYKSCAQNWIYE
notes: Nucleoside diphosphate kinase A, rat, UniProt Q05982; also called NME/NM23 nucleoside diphosphate kinase 1; source: endogenous, GH3 cell lysate
binding [2]: no binding
binding [3]: no binding
binding [4]: binds
